Experimental data published in the supplement of paper PMC12067093, “Discovery and optimisation of a covalent ligand for TRIM25 and its application to targeted protein ubiquitination” (Chemical Science, 2025).
This is one part of the list.

Amino acid sequences for entries named in this document (tags omitted). A change or cut given only in a name is not applied to a line headed by its entry.
UniProt Q96TC7: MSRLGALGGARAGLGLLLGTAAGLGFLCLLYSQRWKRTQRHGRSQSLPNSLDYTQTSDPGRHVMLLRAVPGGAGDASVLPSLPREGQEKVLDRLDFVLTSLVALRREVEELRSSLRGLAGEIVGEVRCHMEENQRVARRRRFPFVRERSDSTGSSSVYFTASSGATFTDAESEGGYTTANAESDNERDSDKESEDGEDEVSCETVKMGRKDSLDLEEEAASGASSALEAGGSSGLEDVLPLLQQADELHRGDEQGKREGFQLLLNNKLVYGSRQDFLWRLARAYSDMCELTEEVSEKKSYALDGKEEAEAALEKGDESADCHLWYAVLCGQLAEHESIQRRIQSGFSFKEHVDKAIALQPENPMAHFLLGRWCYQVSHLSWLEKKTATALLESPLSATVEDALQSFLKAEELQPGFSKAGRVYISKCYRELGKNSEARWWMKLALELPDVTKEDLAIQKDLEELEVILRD
UniProt P61586, whole entry: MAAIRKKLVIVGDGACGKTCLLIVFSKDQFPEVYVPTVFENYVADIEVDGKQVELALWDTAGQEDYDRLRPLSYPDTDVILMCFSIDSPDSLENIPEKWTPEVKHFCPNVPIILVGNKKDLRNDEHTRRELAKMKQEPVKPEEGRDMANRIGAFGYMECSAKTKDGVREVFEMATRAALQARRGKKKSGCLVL
UniProt P40938, whole entry, looked up: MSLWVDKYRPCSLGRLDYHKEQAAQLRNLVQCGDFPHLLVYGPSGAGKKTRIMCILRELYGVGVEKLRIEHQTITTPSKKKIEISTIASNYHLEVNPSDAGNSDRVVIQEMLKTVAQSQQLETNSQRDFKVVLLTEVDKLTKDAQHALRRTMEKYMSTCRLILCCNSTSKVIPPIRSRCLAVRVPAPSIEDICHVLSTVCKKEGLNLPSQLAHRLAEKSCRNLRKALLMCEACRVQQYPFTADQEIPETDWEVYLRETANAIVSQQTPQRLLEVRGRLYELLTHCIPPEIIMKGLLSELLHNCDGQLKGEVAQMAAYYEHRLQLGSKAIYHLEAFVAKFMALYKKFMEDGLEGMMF

Compound: CC1Cc2ccccc2N1C(=O)C1CCCN(C1)C(=O)CCl (mixture of isomers) [TRIM25 ligand 11 (diastereomer mixture)]
Assay: probe-labelled cysteine peptide fold change vs DMSO (competition) (log2 fold change); higher = less target engagement (more negative = stronger competition)
Conditions: THP-1, incubation time: 4 h
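Note: competitive chemoproteomic profiling in live THP-1 cells with an iodoacetamide desthiobiotin (IA-DTB) probe, comparing probe-labelled peptide intensities in compound-treated cells against DMSO-treated controls.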

| Target | probe-labelled cysteine peptide fold change (10 µM) | probe-labelled cysteine peptide fold change (50 µM) |
| --- | --- | --- |
| RMDN3_Q96TC7_128_CHMEENQR (UniProt Q96TC7) | 0.0409 | -0.0604 |
| RHOA_P61586_159_IGAFGYMECSAK (UniProt P61586) | -0.0166 | -0.0933 |
| RFC3_P40938_32_NLVQCGDFPHLLVYGPSGAGK (UniProt P40938) | 0.175 | -0.0134 |
